Source: PubChem BioAssay AID652243 (Drosophila RNAi Screening Center, 2013)
Test: 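Knock-downs that decrease or increase androgen receptor reporter signal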 (primary screen). Cells: Drosophila S2R+ cells. Reagents: long dsRNA against Drosophila genes. Time to read-out: 72 h (48 h, then 24 h hormone). Conditions: synthetic androgen R1881 at 10 nM for 24 h. Measurement: 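Per-well raw luminescence of the androgen-driven firefly reporter and of the Renilla control, two replicates each, without normalisation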. Scale: firefly reporter light: higher = more light from androgen-responsive reporter; Renilla control light: higher = more constitutive control signal (cell number, transfection). Active means: 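Hit when the log firefly-to-Renilla ratio dropped or increased by a fixed fold versus the mean of GFP or LacZ controls across duplicate plates; lowering cut given as 1.5 and as 3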. Calls: active = hit: reporter lowered or raised; inactive = no hit.
The deposit covers about 24,000 reagents; shown is an unselected part of those that have a named target and a result. Over the whole deposit, 246 (1%) are marked active. 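Plates not normalised; calls are printed but the firefly/Renilla ratio behind them is not deposited; fold cut for lowering reported inconsistently.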 The raw values are shown without normalisation. A number with no mark means an inactive call. No sequences are given here. Not stated in the record: the amount of reagent.

Knock-down of CG33178 [SID104199742] gave: firefly reporter light, replicate 1 = 4.71e5; firefly reporter light, replicate 2 = 5.53e5; Renilla control light, replicate 1 = 3.09e6; Renilla control light, replicate 2 = 3.27e6.
With knock-down of Psc [SID104187310] the results were firefly reporter light, replicate 1 = 2.24e5; firefly reporter light, replicate 2 = 1.99e5; Renilla control light, replicate 1 = 1.19e6; Renilla control light, replicate 2 = 1.45e6.
For Psc [SID104207560], the entry reads firefly reporter light, replicate 1 = 4.13e5; firefly reporter light, replicate 2 = 4.82e5; Renilla control light, replicate 1 = 1.23e6; Renilla control light, replicate 2 = 1.22e6.
Silencing of CG10208 [SID104194003] gave: firefly reporter light, replicate 1 = 2.24e5; firefly reporter light, replicate 2 = 3.05e5; Renilla control light, replicate 1 = 2.89e6; Renilla control light, replicate 2 = 3.33e6.
Against ppk18 [SID104182008] the deposit lists firefly reporter light, replicate 1 = 2.98e5; firefly reporter light, replicate 2 = 2.02e5; Renilla control light, replicate 1 = 1.92e6; Renilla control light, replicate 2 = 1.47e6.
For ppk18 [SID104182009], the values are firefly reporter light, replicate 1 = 2.47e5; firefly reporter light, replicate 2 = 3.15e5; Renilla control light, replicate 1 = 1.20e6; Renilla control light, replicate 2 = 1.51e6.
For CG30391 [SID104201283], the entry reads firefly reporter light, replicate 1 = 7.72e5; firefly reporter light, replicate 2 = 7.78e5; Renilla control light, replicate 1 = 1.58e6; Renilla control light, replicate 2 = 1.32e6.

As entered above:
Value for ppk18 [SID104182009] under “Renilla control light, replicate 1”: 1.20e6
Value for Psc [SID104207560] in “Renilla control light, replicate 2”: 1.22e6

The listing continues.
After knock-down of Loxl1 [SID104194095], the screen gave firefly reporter light, replicate 1 = 1.51e5; firefly reporter light, replicate 2 = 1.58e5; Renilla control light, replicate 1 = 1.82e6; Renilla control light, replicate 2 = 2.31e6.
For CG11825 [SID104185882], the values are firefly reporter light, replicate 1 = 3.21e5; firefly reporter light, replicate 2 = 2.09e5; Renilla control light, replicate 1 = 1.85e6; Renilla control light, replicate 2 = 1.11e6.
Knock-down of CG11825 [SID104206324] gave: firefly reporter light, replicate 1 = 2.07e5; firefly reporter light, replicate 2 = 1.60e5; Renilla control light, replicate 1 = 6.68e5; Renilla control light, replicate 2 = 7.59e5.
With knock-down of gNacalpha [SID104180446], the screen gave firefly reporter light, replicate 1 = 77819; firefly reporter light, replicate 2 = 63624; Renilla control light, replicate 1 = 6.64e5; Renilla control light, replicate 2 = 7.01e5.
Depletion of gNacalpha [SID104208384] resulted in: firefly reporter light, replicate 1 = 3.67e5; firefly reporter light, replicate 2 = 3.12e5; Renilla control light, replicate 1 = 1.10e6; Renilla control light, replicate 2 = 1.15e6.
CG4995 [SID104182593] showed firefly reporter light, replicate 1 = 6.95e5; firefly reporter light, replicate 2 = 9.13e5; Renilla control light, replicate 1 = 1.65e6; Renilla control light, replicate 2 = 2.71e6.
With knock-down of CG14537 [SID104182187] the results were firefly reporter light, replicate 1 = 1.90e5; firefly reporter light, replicate 2 = 2.17e5; Renilla control light, replicate 1 = 1.59e6; Renilla control light, replicate 2 = 1.62e6.
Against CG2767 [SID104195243], the entry reads firefly reporter light, replicate 1 = 39440; firefly reporter light, replicate 2 = 64259; Renilla control light, replicate 1 = 2.51e5; Renilla control light, replicate 2 = 5.09e5.
Silencing of CG2767 [SID104205374] resulted in: firefly reporter light, replicate 1 = 4.00e5; firefly reporter light, replicate 2 = 3.25e5; Renilla control light, replicate 1 = 5.20e5; Renilla control light, replicate 2 = 3.43e5.
Knock-down of CG12391 [SID104185939] resulted in: firefly reporter light, replicate 1 = 7.60e5; firefly reporter light, replicate 2 = 8.65e5; Renilla control light, replicate 1 = 1.73e6; Renilla control light, replicate 2 = 1.67e6.
snk [SID104196852] scored firefly reporter light, replicate 1 = 20940; firefly reporter light, replicate 2 = 26647; Renilla control light, replicate 1 = 6.41e5; Renilla control light, replicate 2 = 7.22e5.
After knock-down of Fur1 [SID104193499], the screen gave firefly reporter light, replicate 1 = 60947; firefly reporter light, replicate 2 = 38040; Renilla control light, replicate 1 = 1.07e5; Renilla control light, replicate 2 = 1.14e5.
Silencing of Fur1 [SID104196468] resulted in: firefly reporter light, replicate 1 = 60029; firefly reporter light, replicate 2 = 76705; Renilla control light, replicate 1 = 5.20e5; Renilla control light, replicate 2 = 4.80e5.
With knock-down of TwdlB [SID104195842], the screen gave firefly reporter light, replicate 1 = 1.85e5; firefly reporter light, replicate 2 = 1.80e5; Renilla control light, replicate 1 = 1.71e6; Renilla control light, replicate 2 = 1.62e6.
After knock-down of TwdlB [SID104203617], the screen gave firefly reporter light, replicate 1 = 9.46e5; firefly reporter light, replicate 2 = 8.68e5; Renilla control light, replicate 1 = 6.09e5; Renilla control light, replicate 2 = 8.84e5.
